The results in this text go back to article PMC12316622 (EJNMMI Research, 2025).

Where a name gives a salt, the structure may show the parent alone.

The subject of this assay is PC-3 cells. Nature of the assay: IC50 determination, SRB cell density assay, PC-3. It counts as cell-based. The following applies: Homo sapiens. The method, boiled down: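 Cells were seeded in 96-well plates (PC-3 at 3 × 10³, T47D at 5 × 10³) and left overnight. They were exposed 72 h at 37 °C to increasing test compound concentrations with DMSO vehicle, washed, then regrown 48 h in fresh medium. Readout was by SRB: TCA fixation overnight, 0.5% SRB for 20 min, acetic acid washes, dye dissolved in 10 mM Tris, OD at 560 nm. Density was taken relative to untreated cells (100%). Runs were in triplicate, and IC50 came from a four-parameter nonlinear fit.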

With `COc1cccc2c1C(=O)c1c(O)c3c(c(O)c1C2=O)C[C@@](O)(C(=O)CO)C[C@@H]3O[C@H]1C[C@H](N)[C@H](O)[C@H](C)O1` [DXR, doxorubicin hydrochloride], 0.0227 ± 0.00417 µM corresponded to half-maximal inhibition (IC50).
